# Measurements taken from the supplement of paper PMC9254222.
# Whole data set: some 1,100 compounds, median “Renilla luciferase signal (cell health) relative to plate median” near 0.97, cut for the highest 2% near 1.6. This is a selection; strong and weak results do not stand in their true shares.
# System: HEK293T (UBE3A T485A transfected, BAR Wnt reporter)
# Test: Renilla luciferase signal (cell health) relative to plate median (fold (linear ratio)); higher = higher Renilla signal
# Conditions: 24 h
# Procedure, shortened: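 Chemicals at 0.01–100 uM were left on transfected HEK293T cells for 24 h, after a four-hour wait following transfection. The cells held a BAR firefly luciferase Wnt reporter, TK-Renilla and an expression plasmid. Wnt activity, as the firefly/Renilla ratio from a Dual-Glo luciferase readout, and cell health, as raw Renilla, were median-centred within each plate. Results average four biological replicates.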
SMILES,Renilla luciferase signal (concentration: 0.1 uM),Renilla luciferase signal (concentration: 1 uM),Renilla luciferase signal (concentration: 10 uM),Renilla luciferase signal (concentration: 100 uM),Renilla luciferase signal (concentration: 0.01 uM)
CCCc1ccccc1 [Propylbenzene],0.797,0.829,0.888,0.989,–
Cc1ccc(O)cc1 [p-Cresol],0.884,0.892,0.87,1.05,–
Cn1cnc([N+](=O)[O-])c1Sc1ncnc2nc[nH]c12 [Azathioprine],0.939,0.983,0.605,0.0481,–
Cn1cc[nH]c1=S [Methimazole],–,–,–,2.27,–
CN(C)c1ccc(N=NS(=O)(=O)[O-])cc1.[Na+] [Fenaminosulf],0.694,0.672,0.652,0.433,–
CC1=C(C)S(=O)(=O)CCS1(=O)=O [Dimethipin],0.84,0.785,0.853,0.224,–
C[C@]12CC[C@@H]3c4ccc(O)cc4CC[C@H]3[C@@H]1CCC2=O [Estrone],0.871,1.02,0.931,0.71,–
CC(=O)S[C@H](C(=O)N[C@H]1Cc2ccccc2[C@H]2CCC[C@@H](C(=O)O)N2C1=O)C(C)C [Ilepatril],0.879,0.836,0.857,1.53,–
OCCNCCO [Diethanolamine],0.974,0.928,0.967,1.08,–
NC(=O)N/N=C/c1ccc([N+](=O)[O-])o1 [Nitrofurazone],1.03,1.13,1.44,0.334,–
CCOC(=O)O[C@H](C)OC(=O)c1ccc2c(c1)cc(C(=O)NC1CCN(C(C)C)CC1)n2Cc1cc(-c2ccc(Cl)s2)on1.Cl,1.22,1.16,1.33,0.031,–
C=CCOC(Cn1ccnc1)c1ccc(Cl)cc1Cl (stereo not given) [Imazalil],0.885,0.939,0.777,0.0667,0.797
CC(C)COC(=O)CCCCC(=O)OCC(C)C [Diisobutyl adipate],1.02,0.794,0.992,1.12,–
Cc1cc(Nc2cc(N3CCN(C)CC3)nc(Sc3ccc(NC(=O)C4CC4)cc3)n2)n[nH]1,0.649,0.492,0.404,0.0104,0.642
CC1=C(/C=C/C(C)=C/C=C/C(C)=C/C(=O)O)C(C)(C)CCC1 [all-trans-Retinoic acid],0.713,0.788,0.682,0.081,–
O=C(NO)C1(NS(=O)(=O)c2ccc(Oc3ccc(F)cc3)cc2)CCOCC1,0.742,0.782,0.804,0.169,–

SMILES,Renilla luciferase signal (concentration: 0.1 uM),Renilla luciferase signal (concentration: 1 uM),Renilla luciferase signal (concentration: 10 uM),Renilla luciferase signal (concentration: 100 uM),Renilla luciferase signal (concentration: 0.01 uM)
"O=c1[nH]cnc2c1ncn2[C@H]1CC[C@@H](CO)O1 [2',3'-Dideoxyinosine]",0.826,0.934,0.911,1.12,–
O=C(O)c1ccccc1-n1cc(C(=O)O)c(=O)c2cc(Nc3c(F)cc(F)cc3Cl)c(Cl)cc21,0.808,0.866,0.845,1.14,–
COC(=O)CC(=O)OC [Dimethyl malonate],1.17,1.21,1.04,1.24,–
CCCCc1ccc2c(n1)[C@@H](c1ccc(OC)cc1C[C@H](C)C(=O)[O-])[C@H](C(=O)[O-])[C@H]2c1ccc2c(c1)OCO2.[Na+].[Na+],0.914,0.941,0.924,0.813,–
O=c1[nH]cc(F)c(=O)[nH]1 [5-Fluorouracil],1.08,1.13,0.346,0.231,–
Sc1nc2ccccc2s1 [2-Mercaptobenzothiazole],0.981,0.791,0.768,0.92,–
"CC(O)CO (stereo not given) [1,2-Propylene glycol]",1.33,1.18,1.24,1.42,–
COc1cc(-c2nc(NC(=O)c3cc4cc(C)cc(C)c4n3CC(=O)O)sc2CCC2CCCCC2)c(OC)cc1Cl.O=C(O)C(F)(F)F,1.03,0.976,0.93,0.0588,–
CC(=O)[C@@]1(O)CC[C@H]2[C@@H]3CCC4=CC(=O)CC[C@]4(C)[C@H]3CC[C@@]21C [17alpha-Hydroxyprogesterone],1.03,0.973,0.95,0.967,–
CCCCOCCOCCOCc1cc2c(cc1CCC)OCO2 [Piperonyl butoxide],1.07,0.901,1.05,1.04,1.26
CCc1c2c(nc3ccc(OC(=O)N4CCC(N5CCCCC5)CC4)cc13)-c1cc3c(c(=O)n1C2)COC(=O)C3(O)CC (stereo not given) [Irinotecan],0.663,0.663,0.302,0.414,0.654
Oc1ccc2ccccc2c1 [2-Naphthalenol],1.11,1.1,1.14,0.666,–
Cc1cc(SC2=C(O)C[C@@](CCc3ccc(N)cc3)(C(C)C)OC2=O)c(C(C)(C)C)cc1CO,0.926,1.01,0.952,0.324,–
CCCCCCCCCCCCCCOS(=O)(=O)[O-].[Na+] [Sodium myristyl sulfate],1.07,0.951,1.15,0.42,–
Oc1ccc(C2COc3cc(O)ccc3C2)cc1 (stereo not given) [Equol],1.02,0.905,0.984,0.696,0.939
NNC(=O)c1ccncc1 [Isoniazid],1.37,0.946,1.09,1.35,–

# An excerpt of these results, with bars between the fields.
SMILES | Renilla luciferase signal (concentration: 0.1 uM) | Renilla luciferase signal (concentration: 1 uM) | Renilla luciferase signal (concentration: 10 uM) | Renilla luciferase signal (concentration: 100 uM) | Renilla luciferase signal (concentration: 0.01 uM)
O=c1[nH]cc(F)c(=O)[nH]1 [5-Fluorouracil] | 1.08 | 1.13 | 0.346 | 0.231 | –
Sc1nc2ccccc2s1 [2-Mercaptobenzothiazole] | 0.981 | 0.791 | 0.768 | 0.92 | –
